According to patent US8637664B2, “Alkyl 4- [4- (5-oxo-2,3,5, 11a-tetrahydo-5H-pyrrolo [2, 1-c] [1,4] benzodiazepine-8-yloxy)-butyrylamino]-1H-pyrrole-2-carboxylate derivatives and related compounds for the treatment of a proliferative disease” (Spirogen SARL, priority 2005, dated 2014):
Some compounds share one wording; it may come from a single statement.

Tested on: MCF-7 human mammary cells
Test: Cellular uptake and nuclear incorporation by confocal microscopy
Format: cell-based
Conditions: for time at which cellular uptake is detectable: MCF-7, confocal microscopy; for localisation of fluorescence in the cell: MCF-7, highest drug concentrations, 24 hour exposure

Structure (SMILES) | time at which cellular uptake is detectable [h] | localisation of fluorescence in the cell
COC(=O)c1cc(NC(=O)CCCOc2cc3c(cc2OC)C(=O)N2CCC[C@H]2C=N3)cn1C [Compound 21, (11aS) Methyl 4-[4-(7-methoxy-5-oxo-2,3,5,11a-tetrahydro-5H-pyrrolo[2,1-c][1,4]benzodiazepine-8-yloxy)-butyrylamino]-1-methyl-1H-pyrrole-2-carboxylate] | < 1 | strong nuclear fluorescence
COC(=O)c1cc(NC(=O)c2cc(NC(=O)CCCOc3cc4c(cc3OC)C(=O)N3CCC[C@H]3C=N4)cn2C)cn1C [Compound 23, (11aS) Methyl 4-({4-[4-(7-Methoxy-6-oxo-2,3,5,11a-tetrahydro-5H-pyrrolo[2,1-c][1,4]benzodiazepine-8-yloxy)-butyrylamino]-1-methyl-1H-pyrrole-2-carbonyl}-amino)-1-methyl-1H-pyrrole-2-carboxylate] | 3 | strong nuclear fluorescence
COC(=O)c1cc(NC(=O)c2cc(NC(=O)c3cc(NC(=O)CCCOc4cc5c(cc4OC)C(=O)N4CCC[C@H]4C=N5)cn3C)cn2C)cn1C [Compound 25, (11aS) Methyl 4-{[4-({4-[4-(7-Methoxy-6-oxo-2,3,5,11a-tetrahydro-5H-pyrrolo[2,1-c][1,4]benzodiazepine-8-yloxy)-butyrylamino]-1-methyl-1H-pyrrole-2-carbonyl]-amino)-1-methyl-1H-pyrrole-2-carbonyl]-amino}-1-methyl-1H-pyrrole-2-carboxylate] | 3 | strong nuclear fluorescence
